Measurements from article PMC9200286.
These are yes or no findings as the source states them, for the method shown. In cells and extracts the contact can be indirect. Some results given as binding are weak or reduced against the parent protein; the word gives no strength.

By UniProt entry, the sequences of proteins in these tests, tags left out.
UniProt Q61026: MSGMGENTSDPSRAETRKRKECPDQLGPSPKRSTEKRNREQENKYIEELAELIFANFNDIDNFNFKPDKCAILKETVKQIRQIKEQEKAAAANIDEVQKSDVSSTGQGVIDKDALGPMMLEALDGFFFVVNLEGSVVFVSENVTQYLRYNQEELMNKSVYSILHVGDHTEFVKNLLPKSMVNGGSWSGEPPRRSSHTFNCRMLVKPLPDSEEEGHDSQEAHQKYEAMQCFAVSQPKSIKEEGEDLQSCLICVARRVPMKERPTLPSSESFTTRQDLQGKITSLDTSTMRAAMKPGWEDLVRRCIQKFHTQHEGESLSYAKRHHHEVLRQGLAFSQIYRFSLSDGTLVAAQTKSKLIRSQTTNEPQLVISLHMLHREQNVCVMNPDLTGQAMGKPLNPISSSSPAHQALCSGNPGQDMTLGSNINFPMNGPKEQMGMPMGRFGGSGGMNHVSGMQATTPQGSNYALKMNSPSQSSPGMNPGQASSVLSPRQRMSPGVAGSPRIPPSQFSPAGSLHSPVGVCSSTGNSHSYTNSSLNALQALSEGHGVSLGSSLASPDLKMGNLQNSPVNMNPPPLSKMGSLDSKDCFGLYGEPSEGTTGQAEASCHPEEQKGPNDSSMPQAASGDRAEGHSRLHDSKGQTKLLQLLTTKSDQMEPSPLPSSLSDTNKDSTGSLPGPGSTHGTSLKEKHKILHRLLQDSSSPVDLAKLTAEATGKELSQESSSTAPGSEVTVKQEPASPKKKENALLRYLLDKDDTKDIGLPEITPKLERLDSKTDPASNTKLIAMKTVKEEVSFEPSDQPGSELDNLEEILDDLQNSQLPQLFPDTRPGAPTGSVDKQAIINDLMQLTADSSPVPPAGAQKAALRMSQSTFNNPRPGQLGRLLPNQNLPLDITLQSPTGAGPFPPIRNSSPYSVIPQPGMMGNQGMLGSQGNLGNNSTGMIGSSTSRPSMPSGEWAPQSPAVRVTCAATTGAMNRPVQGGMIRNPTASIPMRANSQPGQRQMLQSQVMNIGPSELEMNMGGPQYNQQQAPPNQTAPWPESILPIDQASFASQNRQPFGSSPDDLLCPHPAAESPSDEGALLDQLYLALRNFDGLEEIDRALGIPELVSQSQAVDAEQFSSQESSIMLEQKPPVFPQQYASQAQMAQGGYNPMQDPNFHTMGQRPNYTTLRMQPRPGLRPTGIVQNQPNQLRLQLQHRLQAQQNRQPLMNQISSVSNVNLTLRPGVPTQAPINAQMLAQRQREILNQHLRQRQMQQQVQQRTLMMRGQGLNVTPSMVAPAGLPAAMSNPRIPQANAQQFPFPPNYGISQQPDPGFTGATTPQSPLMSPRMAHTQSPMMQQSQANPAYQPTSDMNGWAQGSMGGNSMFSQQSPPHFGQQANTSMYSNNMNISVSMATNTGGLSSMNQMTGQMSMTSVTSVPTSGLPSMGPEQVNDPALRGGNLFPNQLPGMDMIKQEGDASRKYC

Molecular target: Steroid nuclear receptor coactivator 2 (mouse (endogenous in CD4+ T cells of SRC2fl/fl mice)) (UniProt Q61026)
Experiment: co-IP; anti-SRC2 antibody immunoprecipitation from lysate of SRC2fl/fl CD4+ cells 24 hours after Treg polarization; Pierce IP Lysis Buffer (1% Triton X-100, 20 mM tris-Cl pH 7.4, 150 mM NaCl, 5 mM EDTA), overnight with antibody, protein A/G Sepharose beads 4 hours at 4°C; immunoblot for NFAT1

binding: binds
B1: NFAT1 (protein, UniProt Q60591 1-927)
chain: MDVPEPQPDPDGGDGPGHEPGGSPQDELDFSILFDYDYLNPIEEEPIAHKAISSPSGLAYPDDVLDYGLKPCNPLASLSGEPPGRFGEPDSIGFQNFLSPVKPAGASGPSPRIEITPSHELMQAGGALRGRDAGLSPEQPALALAGVAASPRFTLPVPGYEGYREPLCLSPASSGSSASFISDTFSPYTSPCVSPNNAGPDDLCPQFQNIPAHYSPRTSPIMSPRTSLAEDSCLGRHSPVPRPASRSSSPGAKRRHSCAEALVAPLPAASPQRSRSPSPQPSPHVALQDDSIPAGYPPTAGSAVLMDALNTLATDSPCGIPSKIWKTSPDPTPVSTAPSKAGLARHIYPTVEFLGPCEQEERRNSAPESILLVPPTWPKQLVPAIPICSIPVTASLPPLEWPLSNQSGSYELRIEVQPKPHHRAHYETEGSRGAVKAPTGGHPVVQLHGYMENKPLGLQIFIGTADERILKPHAFYQVHRITGKTVTTTSYEKIVGNTKVLEIPLEPKNNMRATIDCAGILKLRNADIELRKGETDIGRKNTRVRLVFRVHVPEPSGRIVSLQAASNPIECSQRSAHELPMVERQDMDSCLVYGGQQMILTGQNFTAESKVVFMEKTTDGQQIWEMEATVDKDKSQPNMLFVEIPEYRNKHIRVPVKVNFYVINGKRKRSQPQHFTYHPVPAIKTEPSDEYEPSLICSPAHGGLGSQPYYPQHPMLAESPSCLVATMAPCQQFRSGLSSPDARYQQQSPAAALYQRSKSLSPGLLGYQQPSLLAAPLGLADAHRSVLVHAGSQGQGQGSTLPHTSSASQQASPVIHYSPTNQQLRGGGHQEFQHIMYCENFGPSSARPGPPPINQGQRLSPGAYPTVIQQQTAPSQRAAKNGPSDQKEALPTGVTVKQEQNLDQTYLDDVNEIIRKEFSGPPSRNQT
